Measured values as given in patent US9783523B2, “N-acylimino heterocyclic compounds” (BASF SE, priority 2013, dated 2017).
Some of these results come from one statement about several compounds together. At least one structure is not confirmed: it was looked up by name or label, or the drawing left a doubt.

Columns and labels:
[1] = tested on: Myzus persicae; test: Green peach aphid (Myzus persicae), systemic control, liquid artificial diet under membrane in 96-well microtiter plates; type: in vivo; settings: 2500 ppm; adult aphids on treated diet, 3 days
Source text: General conditions: If not otherwise specified, most test solutions are to be prepared as follows: The active compound is to be dissolved at the desired concentration in a mixture of 1:1 (vol:vol) distilled water:acteon. Further, the test solutions are to be prepared at the day of use (and, if not otherwised specified, in general at concentrations wt/vol).
For evaluating control of green peach aphid (Myzus persicae) through systemic means, the test unit consists of 96-well-microtiter plates containing liquid artificial diet under an artificial membrane.
The compounds are formulated using a solution containing 75% v/v water and 25% v/v DMSO. Different concentrations of formulated compounds are pipetted into the aphid diet, using a custom built pipetter, at two replications.
After application, 5-8 adult aphids are placed on the artificial membrane inside the microtiter plate wells. The aphids are then allowed to suck on the treated aphid diet and incubated at about 23+1° C. and about 50+5% relative humidity for 3 days. Aphid mortality and fecundity is then visually assessed.

[2] = tested on: Megoura viciae; test: Vetch aphid (Megoura viciae), sprayed bean leaf disks in microtiter plates; type: in vivo; settings: 2500 ppm, 6 days
Protocol: The active compounds were formulated in 3:1 (vol:vol) water:DMSO with different concentrations of formulated compounds.
Bean leaf disks were placed into microtiterplates filled with 0.8% agar-agar and 2.5 ppm OPUS™. The leaf disks were sprayed with 2.5 μl of the test solution and 5 to 8 adult aphids were placed into the microtiter plates which were then closed and kept at 23±1° C. and 50±5% relative humidity under fluorescent light for 6 days. Mortality was assessed on the basis of vital, reproduced aphids. Aphid mortality and fecundity was then visually assessed.

| Structure (SMILES) | mortality in comparison with untreated controls [1] | mortality in comparison with untreated controls [2] |
| --- | --- | --- |
| COC(=O)CCCON=C(C(=O)N=c1ccccn1Cc1ccc(Cl)nc1)C1CC1 [Compound I-525] | at least 75% |  |
| O=C(NN=C(C(=O)N=c1ccccn1Cc1ccc(Cl)nc1)C1CC1)Nc1cc(Cl)cc(Cl)c1 [Compound I-535] | at least 75% |  |
| COc1ccc(Br)c(CON=C(C(=O)N=c2ccccn2Cc2ccc(Cl)nc2)C2CC2)c1 (mixture of isomers) [Compound I-154] | at least 75% | at least 75% |
| O=C(C=NNc1ccc(F)cc1)N=c1ccccn1Cc1ccc(Cl)nc1 [Compound I-505] | at least 75% |  |
| CC=CCON=C(C#N)C(=O)N=c1ccccn1Cc1ccc(Cl)nc1 [Compound I-680] | at least 75% | at least 75% |
| COc1ccc(CON=C(C(=O)N=c2ccccn2Cc2ccc(Cl)nc2)C2CC2)c(C(F)(F)F)c1 (mixture of isomers) [Compound I-164] | at least 75% |  |
| COC(=O)C=CCON=C(C#N)C(=O)N=c1ccccn1Cc1ccc(Cl)nc1 [Compound I-681] | at least 75% | at least 75% |
| CC(=NNC(=O)Nc1ccccc1)C(=O)N=c1ccccn1Cc1ccc(Cl)nc1 [Compound I-310] | at least 75% |  |
| O=C(N=c1ccccn1Cc1ccc(Cl)nc1)C(=NOCc1c(F)cc(Cl)cc1F)C1CC1 (mixture of isomers) [Compound I-162] | at least 75% | at least 75% |
| O=C(N=c1ccccn1Cc1ccc(Cl)nc1)C(=NOCc1c(F)cccc1Cl)C1CC1 (mixture of isomers) [Compound I-138] | at least 75% | at least 75% |
| O=C(C=NNC(=O)NCC1CC1)N=c1ccccn1Cc1ccc(Cl)nc1 [Compound I-216] | at least 75% | at least 75% |
| Cc1cc(Cl)ccc1NN=CC(=O)N=c1ccccn1Cc1ccc(Cl)nc1 [Compound I-300] | at least 75% |  |
| O=C(N=c1ccccn1Cc1ccc(Cl)nc1)C(=NOCc1c(F)ccc(Cl)c1F)C1CC1 (mixture of isomers) [Compound I-157] | at least 75% | at least 75% |
| O=C(C=NNc1cccc(Cl)c1Cl)N=c1ccccn1Cc1ccc(Cl)nc1 [Compound I-297] | at least 75% |  |
| C=C(CON=C(C#N)C(=O)N=c1ccccn1Cc1ccc(Cl)nc1)C(=O)OC [Compound I-678] | at least 75% | at least 75% |
| O=C(C=NNc1c(F)cc(F)cc1F)N=c1ccccn1Cc1ccc(Cl)nc1 [Compound I-409] | at least 75% |  |
| O=C(C=NNc1ccc(C(F)(F)F)cc1)N=c1ccccn1Cc1ccc(Cl)nc1 [Compound I-405] | at least 75% |  |
| O=C(N=c1ccccn1Cc1ccc(Cl)nc1)C(=NOCc1c(F)ccc(F)c1Cl)C1CC1 (mixture of isomers) [Compound I-158] | at least 75% | at least 75% |
| CON=C(C(=O)N=c1ccccn1Cc1ccc(Cl)nc1)C(C)=NO [Compound I-555] | at least 75% |  |
| CON=C(C(=O)N=c1ccccn1Cc1ccc(Cl)nc1)c1cccs1 (mixture of isomers) [Compound I-36] | at least 75% |  |
| O=C(N=c1ccccn1Cc1ccc(Cl)nc1)C(=NOCc1c(Cl)cccc1Br)C1CC1 (mixture of isomers) [Compound I-167] | at least 75% | at least 75% |
| O=C(N=c1ccccn1Cc1ccc(Cl)nc1)C1=NOC(c2cccs2)C1 (racemic) [Compound I-573] | at least 75% | at least 75% |
| O=C(N=c1ccccn1Cc1ccc(Cl)nc1)C(=NOCc1ccc([N+](=O)[O-])cc1)C1CC1 (mixture of isomers) [Compound I-269] | at least 75% | at least 75% |
| O=C(C=NOCc1cccc(Cl)c1)N=c1ccccn1CC1CCOC1 (centres unmarked) [Compound I-6] |  | at least 75% |
| COC(=O)C(=NOCc1ccc(Cl)cc1)C(=O)N=c1ccccn1Cc1ccc(Cl)nc1 [Compound I-64] | at least 75% |  |

| Structure (SMILES) | mortality in comparison with untreated controls [1] | mortality in comparison with untreated controls [2] |
| --- | --- | --- |
| CC1(C(F)(F)F)CC(C(=O)N=c2ccccn2Cc2ccc(Cl)nc2)=NO1 (racemic) [Compound I-709] | at least 75% | at least 75% |
| CNC(=O)C(=NOC)C(=O)N=c1ccccn1Cc1ccc(Cl)nc1 [Compound I-66] | at least 75% |  |
| O=C(C=NNc1ccccc1C(F)(F)F)N=c1ccccn1Cc1ccc(Cl)nc1 (mixture of isomers) [Compound I-408] | at least 75% |  |
| COc1cccc(CON=C(C(=O)N=c2ccccn2Cc2ccc(Cl)nc2)C2CC2)c1 (mixture of isomers) [Compound I-137] | at least 75% | at least 75% |
| O=C(N=c1ccccn1Cc1ccc(Cl)nc1)C(=NOCc1cc(F)c(F)cc1Cl)C1CC1 (mixture of isomers) [Compound I-160] | at least 75% | at least 75% |
| C#CC(=NOC)C(=O)N=c1ccccn1Cc1ccc(Cl)nc1 [Compound I-695] | at least 75% | at least 75% |
| O=C(C=NNC(=O)Nc1cccc(C(F)(F)F)c1)N=c1ccccn1Cc1ccc(Cl)nc1 [Compound I-215] | at least 75% |  |
| CC(=NNc1ccccc1Cl)C(=O)N=c1ccccn1Cc1ccc(Cl)nc1 [Compound I-261] | at least 75% | at least 75% |
| CCC#CCON=C(C)C(=O)N=c1ccccn1Cc1ccc(Cl)nc1 [Compound I-419] | at least 75% |  |
| COc1ccc(CON=C(C(=O)N=c2ccccn2Cc2ccc(Cl)nc2)C2CC2)cc1F (mixture of isomers) [Compound I-150] | at least 75% | at least 75% |
| O=C(C=NNC(=O)Nc1ccc(F)c(Cl)c1)N=c1ccccn1Cc1ccc(Cl)nc1 [Compound I-397] | at least 75% |  |
| O=C(C=NNC(=O)NCc1ccccc1)N=c1ccccn1Cc1ccc(Cl)nc1 [Compound I-510] | at least 75% |  |
| O=C(N=c1ccccn1Cc1ccc(Cl)nc1)C(=NOCc1ccc(F)cc1Cl)C1CC1 (mixture of isomers) [Compound I-270] | at least 75% | at least 75% |
| CCCCNC(=O)NN=CC(=O)N=c1ccccn1Cc1ccc(Cl)nc1 [Compound I-214] | at least 75% | at least 75% |
| O=C(N=c1ccccn1Cc1ccc(Cl)nc1)C1=NOC2CCCCC12 (centres unmarked) [Compound I-576] | at least 75% |  |
| O=C(C=NOCc1ccc(Cl)c(Cl)c1)N=c1ccccn1CC1CCOC1 (centres unmarked) [Compound I-5] | at least 75% |  |
| O=C(N=c1ccccn1Cc1ccc(Cl)nc1)C(=NNc1ccc(F)cc1F)C1CC1 [Compound I-180] | at least 75% |  |
| CCOc1ccc(CON=CC(=O)N=c2ccccn2Cc2cnc(Cl)s2)c(F)c1F [Compound I-191] | at least 75% |  |
| O=C(N=c1ccccn1Cc1ccc(Cl)nc1)C(=NOc1cccc(C(F)(F)F)c1)C1CC1 (mixture of isomers) [Compound I-182] | at least 75% | at least 75% |
| N#CC(=NOCC(=O)O)C(=O)N=c1ccccn1Cc1ccc(Cl)nc1 [Compound I-594] | at least 75% |  |
| O=C(C=NNc1ccccc1Cl)N=c1ccccn1Cc1ccc(Cl)nc1 [Compound I-54] | at least 75% |  |
| O=C(C=NNC(=O)Nc1ccccc1)N=c1ccccn1Cc1ccc(Cl)nc1 [Compound I-213] | at least 75% |  |
| CC(C)(ON=CC(=O)N=c1ccccn1Cc1ccc(Cl)nc1)C(=O)O [Compound I-411] | at least 75% |  |
| O=C(C=NNC(=O)Nc1cccc(Cl)c1)N=c1ccccn1Cc1ccc(Cl)nc1 [Compound I-509] | at least 75% |  |
| COC(=O)CON=C(C#N)C(=O)N=c1ccccn1Cc1ccc(Cl)nc1 [Compound I-583] | at least 75% |  |
